Source: US20210324028A1
These are yes or no findings as the source states them, for the method shown. Some binding calls cover weakened binding; strength is not graded here.

By UniProt entry, the sequences of proteins in these tests, tags left out. Residues count along the entry.
UniProt Q13261, residues 31-205: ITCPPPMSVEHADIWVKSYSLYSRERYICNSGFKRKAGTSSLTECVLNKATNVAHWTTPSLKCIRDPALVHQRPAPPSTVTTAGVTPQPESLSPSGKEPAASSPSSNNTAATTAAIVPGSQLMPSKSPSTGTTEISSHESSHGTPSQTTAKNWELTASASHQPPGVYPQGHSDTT

B1: hIL-15 V49R/N4V (ligand)
chain: NWVVVISDLKKIEDLIQSMHIDATLYTESDVHPSCKVTAMKCFLLELQRISLESGDASIHDTVENLIILANNSLSSNGNVTESGCKECEELEEKNIKEFLQSFVHIVQMFINTGGGGSGHHHHHHHHGGGLNDIFEAQKIEWHE
B2: hIL-15 V49R/S7P (ligand)
chain: NWVNVIPDLKKIEDLIQSMHIDATLYTESDVHPSCKVTAMKCFLLELQRISLESGDASIHDTVENLIILANNSLSSNGNVTESGCKECEELEEKNIKEFLQSFVHIVQMFINTGGGGSGHHHHHHHHGGGLNDIFEAQKIEWHE
B3: hIL-15 V49R/K10F (ligand)
chain: NWVNVISDLFKIEDLIQSMHIDATLYTESDVHPSCKVTAMKCFLLELQRISLESGDASIHDTVENLIILANNSLSSNGNVTESGCKECEELEEKNIKEFLQSFVHIVQMFINTGGGGSGHHHHHHHHGGGLNDIFEAQKIEWHE
B4: hIL-15 V49R/K10V (ligand)
chain: NWVNVISDLVKIEDLIQSMHIDATLYTESDVHPSCKVTAMKCFLLELQRISLESGDASIHDTVENLIILANNSLSSNGNVTESGCKECEELEEKNIKEFLQSFVHIVQMFINTGGGGSGHHHHHHHHGGGLNDIFEAQKIEWHE
B5: hIL-15 V49R/K11G (ligand)
chain: NWVNVISDLKGIEDLIQSMHIDATLYTESDVHPSCKVTAMKCFLLELQRISLESGDASIHDTVENLIILANNSLSSNGNVTESGCKECEELEEKNIKEFLQSFVHIVQMFINTGGGGSGHHHHHHHHGGGLNDIFEAQKIEWHE
B6: hIL-15 V49R/D30P (ligand)
chain: NWVNVISDLKKIEDLIQSMHIDATLYTESPVHPSCKVTAMKCFLLELQRISLESGDASIHDTVENLIILANNSLSSNGNVTESGCKECEELEEKNIKEFLQSFVHIVQMFINTGGGGSGHHHHHHHHGGGLNDIFEAQKIEWHE
B7: hIL-15 V49R/I68G (ligand)
chain: NWVNVISDLKKIEDLIQSMHIDATLYTESDVHPSCKVTAMKCFLLELQRISLESGDASIHDTVENLIGLANNSLSSNGNVTESGCKECEELEEKNIKEFLQSFVHIVQMFINTGGGGSGHHHHHHHHGGGLNDIFEAQKIEWHE
B8: hIL-15 V49R/I68W (ligand)
chain: NWVNVISDLKKIEDLIQSMHIDATLYTESDVHPSCKVTAMKCFLLELQRISLESGDASIHDTVENLIWLANNSLSSNGNVTESGCKECEELEEKNIKEFLQSFVHIVQMFINTGGGGSGHHHHHHHHGGGLNDIFEAQKIEWHE
B9: hIL-15 V49R/I68E (ligand)
chain: NWVNVISDLKKIEDLIQSMHIDATLYTESDVHPSCKVTAMKCFLLELQRISLESGDASIHDTVENLIELANNSLSSNGNVTESGCKECEELEEKNIKEFLQSFVHIVQMFINTGGGGSGHHHHHHHHGGGLNDIFEAQKIEWHE
B10: hIL-15 V49R/L69H (ligand)
chain: NWVNVISDLKKIEDLIQSMHIDATLYTESDVHPSCKVTAMKCFLLELQRISLESGDASIHDTVENLIIHANNSLSSNGNVTESGCKECEELEEKNIKEFLQSFVHIVQMFINTGGGGSGHHHHHHHHGGGLNDIFEAQKIEWHE
B11: hIL-15 V49R/L69Q (ligand)
chain: NWVNVISDLKKIEDLIQSMHIDATLYTESDVHPSCKVTAMKCFLLELQRISLESGDASIHDTVENLIIQANNSLSSNGNVTESGCKECEELEEKNIKEFLQSFVHIVQMFINTGGGGSGHHHHHHHHGGGLNDIFEAQKIEWHE
B12: hIL-15 V49R/L69N (ligand)
chain: NWVNVISDLKKIEDLIQSMHIDATLYTESDVHPSCKVTAMKCFLLELQRISLESGDASIHDTVENLIINANNSLSSNGNVTESGCKECEELEEKNIKEFLQSFVHIVQMFINTGGGGSGHHHHHHHHGGGLNDIFEAQKIEWHE
B13: hIL-15 V49R/N4R (ligand)
chain: NWVRVISDLKKIEDLIQSMHIDATLYTESDVHPSCKVTAMKCFLLELQRISLESGDASIHDTVENLIILANNSLSSNGNVTESGCKECEELEEKNIKEFLQSFVHIVQMFINTGGGGSGHHHHHHHHGGGLNDIFEAQKIEWHE
B14: hIL-15 V49R/N4P (ligand)
chain: NWVPVISDLKKIEDLIQSMHIDATLYTESDVHPSCKVTAMKCFLLELQRISLESGDASIHDTVENLIILANNSLSSNGNVTESGCKECEELEEKNIKEFLQSFVHIVQMFINTGGGGSGHHHHHHHHGGGLNDIFEAQKIEWHE
B15: hIL-15 V49R/N4F (ligand)
chain: NWVFVISDLKKIEDLIQSMHIDATLYTESDVHPSCKVTAMKCFLLELQRISLESGDASIHDTVENLIILANNSLSSNGNVTESGCKECEELEEKNIKEFLQSFVHIVQMFINTGGGGSGHHHHHHHHGGGLNDIFEAQKIEWHE
B16: hIL-15 V49R/N4Y (ligand)
chain: NWVYVISDLKKIEDLIQSMHIDATLYTESDVHPSCKVTAMKCFLLELQRISLESGDASIHDTVENLIILANNSLSSNGNVTESGCKECEELEEKNIKEFLQSFVHIVQMFINTGGGGSGHHHHHHHHGGGLNDIFEAQKIEWHE
B17: hIL-15 V49R/K10P (ligand)
chain: NWVNVISDLPKIEDLIQSMHIDATLYTESDVHPSCKVTAMKCFLLELQRISLESGDASIHDTVENLIILANNSLSSNGNVTESGCKECEELEEKNIKEFLQSFVHIVQMFINTGGGGSGHHHHHHHHGGGLNDIFEAQKIEWHE
B18: hIL-15 V49R/K10I (ligand)
chain: NWVNVISDLIKIEDLIQSMHIDATLYTESDVHPSCKVTAMKCFLLELQRISLESGDASIHDTVENLIILANNSLSSNGNVTESGCKECEELEEKNIKEFLQSFVHIVQMFINTGGGGSGHHHHHHHHGGGLNDIFEAQKIEWHE
B19: hIL-15 V49R/K11P (ligand)
chain: NWVNVISDLKPIEDLIQSMHIDATLYTESDVHPSCKVTAMKCFLLELQRISLESGDASIHDTVENLIILANNSLSSNGNVTESGCKECEELEEKNIKEFLQSFVHIVQMFINTGGGGSGHHHHHHHHGGGLNDIFEAQKIEWHE
B20: hIL-15 V49R/K11M (ligand)
chain: NWVNVISDLKMIEDLIQSMHIDATLYTESDVHPSCKVTAMKCFLLELQRISLESGDASIHDTVENLIILANNSLSSNGNVTESGCKECEELEEKNIKEFLQSFVHIVQMFINTGGGGSGHHHHHHHHGGGLNDIFEAQKIEWHE
B21: hIL-15 V49R/K11F (ligand)
chain: NWVNVISDLKFIEDLIQSMHIDATLYTESDVHPSCKVTAMKCFLLELQRISLESGDASIHDTVENLIILANNSLSSNGNVTESGCKECEELEEKNIKEFLQSFVHIVQMFINTGGGGSGHHHHHHHHGGGLNDIFEAQKIEWHE
B22: hIL-15 V49R/D30G (ligand)
chain: NWVNVISDLKKIEDLIQSMHIDATLYTESGVHPSCKVTAMKCFLLELQRISLESGDASIHDTVENLIILANNSLSSNGNVTESGCKECEELEEKNIKEFLQSFVHIVQMFINTGGGGSGHHHHHHHHGGGLNDIFEAQKIEWHE
B23: hIL-15 V49R/D30W (ligand)
chain: NWVNVISDLKKIEDLIQSMHIDATLYTESWVHPSCKVTAMKCFLLELQRISLESGDASIHDTVENLIILANNSLSSNGNVTESGCKECEELEEKNIKEFLQSFVHIVQMFINTGGGGSGHHHHHHHHGGGLNDIFEAQKIEWHE
B24: hIL-15 V49R/H32T (ligand)
chain: NWVNVISDLKKIEDLIQSMHIDATLYTESDVTPSCKVTAMKCFLLELQRISLESGDASIHDTVENLIILANNSLSSNGNVTESGCKECEELEEKNIKEFLQSFVHIVQMFINTGGGGSGHHHHHHHHGGGLNDIFEAQKIEWHE
B25: hIL-15 V49R/H32F (ligand)
chain: NWVNVISDLKKIEDLIQSMHIDATLYTESDVFPSCKVTAMKCFLLELQRISLESGDASIHDTVENLIILANNSLSSNGNVTESGCKECEELEEKNIKEFLQSFVHIVQMFINTGGGGSGHHHHHHHHGGGLNDIFEAQKIEWHE
B26: hIL-15 V49R/H32W (ligand)
chain: NWVNVISDLKKIEDLIQSMHIDATLYTESDVWPSCKVTAMKCFLLELQRISLESGDASIHDTVENLIILANNSLSSNGNVTESGCKECEELEEKNIKEFLQSFVHIVQMFINTGGGGSGHHHHHHHHGGGLNDIFEAQKIEWHE
B27: hIL-15 V49R/E64V (ligand)
chain: NWVNVISDLKKIEDLIQSMHIDATLYTESDVHPSCKVTAMKCFLLELQRISLESGDASIHDTVVNLIILANNSLSSNGNVTESGCKECEELEEKNIKEFLQSFVHIVQMFINTGGGGSGHHHHHHHHGGGLNDIFEAQKIEWHE
B28: hIL-15 V49R/N1P (ligand)
chain: PWVNVISDLKKIEDLIQSMHIDATLYTESDVHPSCKVTAMKCFLLELQRISLESGDASIHDTVENLIILANNSLSSNGNVTESGCKECEELEEKNIKEFLQSFVHIVQMFINTGGGGSGHHHHHHHHGGGLNDIFEAQKIEWHE
B29: hIL-15 V49R/N4I (ligand)
chain: NWVIVISDLKKIEDLIQSMHIDATLYTESDVHPSCKVTAMKCFLLELQRISLESGDASIHDTVENLIILANNSLSSNGNVTESGCKECEELEEKNIKEFLQSFVHIVQMFINTGGGGSGHHHHHHHHGGGLNDIFEAQKIEWHE

molecular target: T1, human IL-2Rβ (human) (UniProt P14784); assay: SPR
T1 sequence (looked up): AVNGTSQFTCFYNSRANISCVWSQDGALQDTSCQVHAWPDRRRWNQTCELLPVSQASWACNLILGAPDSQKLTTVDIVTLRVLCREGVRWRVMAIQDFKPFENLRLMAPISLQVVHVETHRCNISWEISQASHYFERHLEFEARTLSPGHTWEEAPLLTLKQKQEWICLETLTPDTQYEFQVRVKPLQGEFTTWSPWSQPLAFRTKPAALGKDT

binding, binds:
B1
B2
B3
B4
B5
B6
B7
B8
B9
B10
B11
B12
B13
B14

molecular target: human IL-15Rα (human) (UniProt Q13261); assay: SPR

binding, binds:
B15
B16
B1
B17
B18
B3
B4
B5
B19
B20
B21
B22
B23
B24
B25
B26
B27
B28
B29
